Earlier results in US20220280460A1, “METHODS AND COMPOSITIONS FOR STIMULATING EXOSOME SECRETION” (UNIVERSITY OF PITTSBURGH-OF THE COMMONWEALTH SYSTEM OF …, priority 2019, published 2022).
At least one compound was matched to its structure with a doubt left.

Tested on: exosome biogenesis
Conditions: Datta et al., most potent of 4580 screened compounds; cited from earlier work

C=C[C@@]1(C)CC(=O)[C@]2(O)[C@@]3(C)[C@@H](O)CCC(C)(C)[C@@H]3[C@H](O)[C@H](OC(C)=O)[C@@]2(C)O1 [forskolin]
increase of exosome release (activator of exosome biogenesis): 6 fold
